# The other results are listed elsewhere or left out.
# Key:
# Assay in all cases: NMR binding call after quantification (hit when 2 of 3 NMR criteria are met) (binary (1 = binding, 0 = not binding)); higher = binding
# Details in all cases: RNA concentration 10 µM; fragment concentration 200 µM; 293 K
# SARS-CoV-2 3'-UTR RNA = test system: SARS-CoV-2 3'-UTR RNA
# SARS-CoV-2 3_SL1 RNA = test system: SARS-CoV-2 3_SL1 RNA
# SARS-CoV-2 3_SL1+2 RNA = test system: SARS-CoV-2 3_SL1+2 RNA
# SARS-CoV-2 3_SL2 RNA = test system: SARS-CoV-2 3_SL2 RNA
# SARS-CoV-2 3_s2m RNA = test system: SARS-CoV-2 3_s2m RNA
# SARS-CoV-2 5'-UTR RNA = test system: SARS-CoV-2 5'-UTR RNA
# SARS-CoV-2 5_SL1 RNA = test system: SARS-CoV-2 5_SL1 RNA
# SARS-CoV-2 5_SL1234 RNA = test system: SARS-CoV-2 5_SL1234 RNA
# SARS-CoV-2 5_SL2+3 RNA = test system: SARS-CoV-2 5_SL2+3 RNA
# SARS-CoV-2 5_SL4 RNA = test system: SARS-CoV-2 5_SL4 RNA
# SARS-CoV-2 5_SL5 RNA = test system: SARS-CoV-2 5_SL5 RNA
# SARS-CoV-2 5_SL5a RNA = test system: SARS-CoV-2 5_SL5a RNA
# SARS-CoV-2 5_SL5b+c RNA = test system: SARS-CoV-2 5_SL5b+c RNA
# SARS-CoV-2 5_SL5stem RNA = test system: SARS-CoV-2 5_SL5stem RNA
# SARS-CoV-2 5_SL6 RNA = test system: SARS-CoV-2 5_SL6 RNA
# SARS-CoV-2 3_SL3base RNA = test system: SARS-CoV-2 3_SL3base RNA
SMILES,NMR binding call (SARS-CoV-2 3'-UTR RNA),NMR binding call (SARS-CoV-2 3_SL1 RNA),NMR binding call (SARS-CoV-2 3_SL1+2 RNA),NMR binding call (SARS-CoV-2 3_SL2 RNA),NMR binding call (SARS-CoV-2 3_s2m RNA),NMR binding call (SARS-CoV-2 5'-UTR RNA),NMR binding call (SARS-CoV-2 5_SL1 RNA),NMR binding call (SARS-CoV-2 5_SL1234 RNA),NMR binding call (SARS-CoV-2 5_SL2+3 RNA),NMR binding call (SARS-CoV-2 5_SL4 RNA),NMR binding call (SARS-CoV-2 5_SL5 RNA),NMR binding call (SARS-CoV-2 5_SL5a RNA),NMR binding call (SARS-CoV-2 5_SL5b+c RNA),NMR binding call (SARS-CoV-2 5_SL5stem RNA),NMR binding call (SARS-CoV-2 5_SL6 RNA),NMR binding call (SARS-CoV-2 3_SL3base RNA)
COC(=O)Nc1nc2c(C)cccc2s1,0,1,0,0,0,0,0,0,0,0,0,0,0,0,0,–
COc1ccc(NC(=O)Nc2cccs2)cn1,1,0,0,0,0,0,–,0,0,0,0,0,–,0,0,0
CCCC(=O)Nc1cccnc1Cl,0,0,0,–,0,0,0,0,0,0,0,0,0,0,0,0
CCc1nc(-c2ccc(Cl)cc2)no1,1,0,0,0,0,0,–,0,0,0,0,0,0,0,0,0
CCn1cc(CNC(=O)c2cccnc2)cn1,0,0,0,0,0,0,0,0,0,0,0,0,0,0,0,–
COC(=O)c1ccc(NC(=O)C2CCCC2)cc1,0,0,0,–,0,0,0,0,0,0,0,0,0,0,–,0
COc1ccc(CN)cc1OC,0,0,0,0,0,–,0,0,0,0,0,0,1,0,0,0
COc1ccc(C(=O)NCC(N)=O)cc1,0,0,0,0,0,0,0,0,0,0,0,0,0,0,0,–
CNC1CCCN(c2cccnn2)C1 (stereo unspecified),0,0,0,0,0,0,–,0,0,0,0,0,–,0,0,–
NC(=O)C1CCCn2ccnc21 (stereo unspecified),0,0,0,–,0,0,0,0,–,0,0,0,0,0,0,0
CC(=O)Nc1cc(C(N)=O)cc(C(N)=O)c1,0,0,0,0,0,0,0,0,0,0,0,0,0,0,0,–
Oc1ccc(CN2CCc3ccccc3C2)cc1,0,0,0,0,0,–,0,0,0,0,0,0,0,0,0,0
CN(C)c1ccc(CNn2cnnc2)cc1,0,0,0,–,0,0,0,0,–,0,0,0,0,0,0,–
CC(=O)Nc1cc(C(=O)O)ccc1F,0,0,0,–,0,0,0,0,0,0,0,0,0,0,0,0
CCOc1ccc(C(=O)Nc2ccccc2)cc1,0,0,0,0,–,0,0,–,0,–,–,–,0,–,–,0
CNc1ccccc1S(C)(=O)=O,0,0,0,–,0,0,0,0,0,0,0,0,0,0,0,0
CC1CCN(C(=O)c2cc3ccccc3o2)CC1,0,0,0,0,0,0,0,0,0,0,0,0,0,0,0,–
CNCc1cnn(-c2ccccc2)c1,0,0,0,0,0,1,0,–,0,–,–,–,1,–,–,0
Cn1nccc1C(=O)NCc1cccs1,0,0,0,0,0,0,0,0,0,0,0,0,0,0,0,–
NC(=O)CN1CCN(C(=O)c2ccco2)CC1,0,0,0,0,0,–,0,0,0,0,0,0,0,0,0,0

# Whole records from above. Order of values: NMR binding call (SARS-CoV-2 3'-UTR RNA) | NMR binding call (SARS-CoV-2 3_SL1 RNA) | NMR binding call (SARS-CoV-2 3_SL1+2 RNA) | NMR binding call (SARS-CoV-2 3_SL2 RNA) | NMR binding call (SARS-CoV-2 3_s2m RNA) | NMR binding call (SARS-CoV-2 5'-UTR RNA) | NMR binding call (SARS-CoV-2 5_SL1 RNA) | NMR binding call (SARS-CoV-2 5_SL1234 RNA) | NMR binding call (SARS-CoV-2 5_SL2+3 RNA) | NMR binding call (SARS-CoV-2 5_SL4 RNA) | NMR binding call (SARS-CoV-2 5_SL5 RNA) | NMR binding call (SARS-CoV-2 5_SL5a RNA) | NMR binding call (SARS-CoV-2 5_SL5b+c RNA) | NMR binding call (SARS-CoV-2 5_SL5stem RNA) | NMR binding call (SARS-CoV-2 5_SL6 RNA) | NMR binding call (SARS-CoV-2 3_SL3base RNA)
# `CN(C)c1ccc(CNn2cnnc2)cc1` is listed with 0 | 0 | 0 | – | 0 | 0 | 0 | 0 | – | 0 | 0 | 0 | 0 | 0 | 0 | –
# `CC1CCN(C(=O)c2cc3ccccc3o2)CC1` is listed with 0 | 0 | 0 | 0 | 0 | 0 | 0 | 0 | 0 | 0 | 0 | 0 | 0 | 0 | 0 | –

# Next structures

SMILES,NMR binding call (SARS-CoV-2 3'-UTR RNA),NMR binding call (SARS-CoV-2 3_SL1 RNA),NMR binding call (SARS-CoV-2 3_SL1+2 RNA),NMR binding call (SARS-CoV-2 3_SL2 RNA),NMR binding call (SARS-CoV-2 3_s2m RNA),NMR binding call (SARS-CoV-2 5'-UTR RNA),NMR binding call (SARS-CoV-2 5_SL1 RNA),NMR binding call (SARS-CoV-2 5_SL1234 RNA),NMR binding call (SARS-CoV-2 5_SL2+3 RNA),NMR binding call (SARS-CoV-2 5_SL4 RNA),NMR binding call (SARS-CoV-2 5_SL5 RNA),NMR binding call (SARS-CoV-2 5_SL5a RNA),NMR binding call (SARS-CoV-2 5_SL5b+c RNA),NMR binding call (SARS-CoV-2 5_SL5stem RNA),NMR binding call (SARS-CoV-2 5_SL6 RNA),NMR binding call (SARS-CoV-2 3_SL3base RNA)
c1csc(-c2nc(N3CCCCC3)no2)c1,0,0,0,0,0,0,0,0,0,0,0,0,0,0,0,–
OCc1cn(-c2ccc(Cl)cc2)nn1,0,0,0,0,0,0,–,0,0,0,–,0,0,0,0,–
NC(=O)c1ccnc(NC2CC=CC2)c1,1,0,1,–,0,0,–,0,–,1,1,0,–,–,–,0
CN(C)C(=O)OCCn1ccnc1,0,0,0,0,0,0,–,0,0,–,0,0,0,0,0,0
CCCn1nccc1-c1ccncc1,0,0,0,0,0,0,–,0,0,0,0,0,–,0,0,–
Cc1ccc(-c2nc(N)sc2C)cc1C,0,0,0,–,0,0,0,0,0,0,0,0,0,0,0,0
CNc1nccc(OC)n1,1,0,0,0,0,0,0,–,–,0,–,0,0,–,–,0
CC(N)c1cn(-c2ccccc2)nn1.Cl (stereo unspecified),0,0,0,0,0,0,0,0,0,0,0,0,0,0,0,–
c1csc(-c2ncc[nH]2)c1,0,0,0,0,0,0,0,–,–,0,0,0,–,0,–,0
CCOC(=O)c1cn[nH]c1,0,0,0,0,0,0,–,0,0,0,0,0,–,0,0,0
O=C(Nc1cccnc1)c1cnn2cccnc12,1,0,0,0,0,1,–,0,0,0,1,0,–,0,0,–
CC(C)c1ccc(C(=O)Nc2ccccn2)cc1,0,0,0,0,–,0,0,0,0,0,0,0,0,0,0,0
CC(N)c1ccc(-c2cncnc2)cc1 (stereo unspecified),1,0,0,0,–,1,0,–,0,–,–,–,–,–,–,0
N#Cc1cccc(NC(=O)CCC2CCCC2)c1,0,0,0,–,0,0,0,0,0,0,0,0,0,0,0,0
CC(=O)NCc1ncc[nH]1,0,0,0,0,0,0,0,0,–,0,0,0,0,0,0,–
CC(=O)Nc1ccc(-c2csc(N)n2)cc1,1,0,0,0,0,1,0,0,0,0,1,0,0,0,0,–
Cc1cccc(NC(=O)Nc2nc(C)cs2)c1,1,0,0,0,1,–,0,1,0,1,1,0,0,1,–,1
NCc1ccccc1OC(F)(F)F,0,0,0,–,0,0,0,0,0,0,0,0,0,0,0,0
CC(=O)Nc1ccccc1OCc1ccccc1,–,0,0,0,0,0,0,0,0,0,0,0,0,0,0,0
Cc1occc1C(=O)Nc1cc(C(C)(C)C)on1,0,0,–,–,0,0,0,0,–,0,0,–,–,–,–,–

# — the supplement of paper PMC8426693
